The other results are listed elsewhere or left out.

The chains behind the UniProt entries cited, without tags or fusion partners.
UniProt Q0JBA9, entry or part of it: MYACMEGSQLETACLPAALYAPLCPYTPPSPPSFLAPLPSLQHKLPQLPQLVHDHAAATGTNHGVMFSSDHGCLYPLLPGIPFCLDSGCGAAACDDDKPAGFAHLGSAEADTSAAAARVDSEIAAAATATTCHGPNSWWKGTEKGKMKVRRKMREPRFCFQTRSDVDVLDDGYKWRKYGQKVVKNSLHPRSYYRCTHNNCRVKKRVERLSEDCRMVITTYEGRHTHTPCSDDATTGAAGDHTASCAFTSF

These results are taken from publication PMC7819943, “Rice protein-binding microarrays: a tool to detect cis-acting elements near promoter regions in rice”.

This assay addresses OsWRKY34 (Oryza sativa, UniProt Q0JBA9 1-250). In words: protein-binding microarray (RPBM); PBS, 2% BSA, 51.3 ng/ul salmon testes DNA, 50 uM zinc acetate, 200 nM TF, 25 C, 1 h; high values mean tight binding. To be noted: protein: recombinant; tags: N-terminal polyhistidine and DsRed monomer fusion (pET32a); label: CyDye5-dUTP incorporated in the synthesized complementary strand; 3' TTTTT single-stranded linker to array surface; dsDNA, one strand shown. A digest of the protocol:
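The binding signal is fluorescence intensity per array feature (arbitrary units). Readings came from an Axon 4000B scanner after a washed, 2% BSA-blocked, double-stranded custom Agilent array had been incubated for 1 h at 25 °C with 200 nM protein and 50 µM zinc acetate. The protein was a Ni–NTA-purified transcription factor fused N-terminally to polyhistidine and DsRed, expressed in E. coli BL21-CodonPlus.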
For “ACGTCAACGTTCAAACCAGCTCGTCACGCTGTTATTCTCTCGGAGTCACCTAGTGCAG”, the binding signal was 10400 fluorescence intensity (a.u.).

As to “CGATGATGTGACTATATATGGCCGTGTTCCTCCCTCATTACGGAGTCACCTAGTGCAG”, the binding signal was 8310 fluorescence intensity (a.u.).

Consider “GACGGACAGGCCACTATGTATTGCTATGTATGGGTATTGCCGGAGTCACCTAGTGCAG”, for which the binding signal was 8730 fluorescence intensity (a.u.).

Regarding “TTACCTCGAGTTTTGGAGCTATCCATTTGGTTCTTCAGTACGGAGTCACCTAGTGCAG”, the binding signal was 9380 fluorescence intensity (a.u.).

On to “GCTAGTTGTAATATACACATAATTGTTGCTTCATTTCAACCGGAGTCACCTAGTGCAG”, for which the binding signal was 9790 fluorescence intensity (a.u.).

“CTCTTTTAGCCACCCTATCCCGCCGCCACCATCACCTTCTCGGAGTCACCTAGTGCAG”: the binding signal was 8140 fluorescence intensity (a.u.).

For the sequence “GTTGTGTGCAGTGGCTGATGGGAGGAGGGAATGATCCAGACGGAGTCACCTAGTGCAG”, the binding signal was 8580 fluorescence intensity (a.u.).

With “ATATTTCTTTGTCAAGTTTGATTACTGGCTCGACATGGGGCGGAGTCACCTAGTGCAG”, the binding signal was 8620 fluorescence intensity (a.u.).

Take “AATTCAAGCAAATTTGGGGTGCTTTTCTGCTTGTTTCCCCCGGAGTCACCTAGTGCAG”: the binding signal is 8220 fluorescence intensity (a.u.).

“CCCCACCAACTCGGCTGTTTTTGGCGCTACATTACACGTCCGGAGTCACCTAGTGCAG”: the binding signal was 9790 fluorescence intensity (a.u.).

Turning to “GGTGGACTCCAGTGGTTGCCTTGCATACTTAGCTTGCCTTCGGAGTCACCTAGTGCAG”, the binding signal is 8210 fluorescence intensity (a.u.).

In the case of “AAACATATGAGAAAAAGTCAACGGCGTCATCTATTAAAAACGGAGTCACCTAGTGCAG”, the binding signal was 8760 fluorescence intensity (a.u.).

In the case of “CACGCCCGTGCATATCCATCCGTTCTGCCTCGCCTACATGCGGAGTCACCTAGTGCAG”, the binding signal was 10800 fluorescence intensity (a.u.).

Regarding “TGCATTACATGGGCCTTACCTTTGACTGTTTTGAACCCATCGGAGTCACCTAGTGCAG”, the binding signal was 12400 fluorescence intensity (a.u.).

For “TTTTATTCAAATGGAACTGTGTGACCGCTGCCTGTCCATGCGGAGTCACCTAGTGCAG”, the binding signal was 8040 fluorescence intensity (a.u.).

On to “CCCGTCGACGCCTTCCACCGCCCGGCCTTGTCCTCCGTGCCGGAGTCACCTAGTGCAG”, for which the binding signal is 9520 fluorescence intensity (a.u.).

Turning to “TTCAGTGTCAGCATATATACACGATTTATTTTCATGTTATCGGAGTCACCTAGTGCAG”, the binding signal is 8180 fluorescence intensity (a.u.).

With “TGCTCCTCTAGACACTACGTCAGATCCTCACATCTCTGACCGGAGTCACCTAGTGCAG”, the binding signal is 9020 fluorescence intensity (a.u.).

With “TAGGTTTTGTTCTATTCGGTTCTAGGTTCTGTTCTATTCGCGGAGTCACCTAGTGCAG”, the binding signal was 12400 fluorescence intensity (a.u.).

In the case of “TGTTTAGAGTGGTTCAGGTTTGCCTTTTCTTTGCTTCGCTCGGAGTCACCTAGTGCAG”, the binding signal is 9770 fluorescence intensity (a.u.).

For the sequence “CATCCACCGCGCCGTCGCCCAGACCACCACCTCCACCGCTCGGAGTCACCTAGTGCAG”, the binding signal is 8580 fluorescence intensity (a.u.).

Take “CCGAAATTGTGAACCCTGAGCTAGTCAGTCCCATCCTTTTCGGAGTCACCTAGTGCAG”: the binding signal is 8070 fluorescence intensity (a.u.).

On to “ACCACCACCACCACCGCCCGCCAAGCGCGGCCCGCCCGACCGGAGTCACCTAGTGCAG”, for which the binding signal was 8720 fluorescence intensity (a.u.).

Turning to “AACATGCTTAATTTCCACTTGACACTCTTCTTCAGACCTGCGGAGTCACCTAGTGCAG”, the binding signal is 11400 fluorescence intensity (a.u.).

Turning to “CCTGCCAATCTACCATACATGCACCACTGCTCCACCGCCACGGAGTCACCTAGTGCAG”, the binding signal was 9880 fluorescence intensity (a.u.).

As for “CTAAAGCGATTGCACATTCCTTACAATATTTCTGTTGTTCCGGAGTCACCTAGTGCAG”, the binding signal was 12200 fluorescence intensity (a.u.).

In the case of “AAGCAGCTACACTCTTGAGATCTCTTGCTACGATTCTTCACGGAGTCACCTAGTGCAG”, the binding signal was 8600 fluorescence intensity (a.u.).

For the sequence “GCTCGATCCATTTAGGTAATTACTGCTCAACTAGCGATGACGGAGTCACCTAGTGCAG”, the binding signal is 8620 fluorescence intensity (a.u.).

Turning to “CGATCCCTTCTAGGCCCTAGAATTTACTTGGGCCATTCATCGGAGTCACCTAGTGCAG”, the binding signal was 8540 fluorescence intensity (a.u.).

“GGTTTGTCGTTCAGATTTGGATTAGTTCGAGGGTTTCGTGCGGAGTCACCTAGTGCAG”: the binding signal is 8520 fluorescence intensity (a.u.).

With “ACTTTTTATTTTTTTTCCTTTGAGTAGTCAAAAGCAACATCGGAGTCACCTAGTGCAG”, the binding signal is 9230 fluorescence intensity (a.u.).

For the sequence “CTTCCGGTTCTTTTTCTCAATCGCTTGATTCTCATCCTGTCGGAGTCACCTAGTGCAG”, the binding signal is 10500 fluorescence intensity (a.u.).

With “AACCTCCAACCTTTTAATTTCTCACGCGACCATGCACGACCGGAGTCACCTAGTGCAG”, the binding signal is 8820 fluorescence intensity (a.u.).

In the case of “AAATCAACCACTCTTATCCCATCCGTCCATCCACCCTCTCCGGAGTCACCTAGTGCAG”, the binding signal was 10800 fluorescence intensity (a.u.).

For the sequence “AATTAGTTATTATCTCTTCTTCTTCCTTGGTTCAGTTTCCCGGAGTCACCTAGTGCAG”, the binding signal is 9030 fluorescence intensity (a.u.).

In the case of “TTCTTGGGGTGTTCTTGACTGGAAGGTTTCTTTGGTGATGCGGAGTCACCTAGTGCAG”, the binding signal is 8130 fluorescence intensity (a.u.).

Consider “TCACGGCTCATTTTTGAAATAAGTTTTTAGCACAGTTTATCGGAGTCACCTAGTGCAG”, for which the binding signal was 8740 fluorescence intensity (a.u.).

As for “TCTCTTTCTATTGCCCTGTGATTCTTTCTTTCATCGTCGTCGGAGTCACCTAGTGCAG”, the binding signal is 11100 fluorescence intensity (a.u.).

With “ACTTCACATTCACCTTGCACAACCTGTTGCCTTACTTCTTCGGAGTCACCTAGTGCAG”, the binding signal was 10400 fluorescence intensity (a.u.).

As for “CTCTCTTCTCTTCTCCACGTCATCATTTAGCCGATTTATACGGAGTCACCTAGTGCAG”, the binding signal is 11700 fluorescence intensity (a.u.).

Turning to “TGAAGCGTCCCTTTTTTATCCAATGGTCACTACATATTTTCGGAGTCACCTAGTGCAG”, the binding signal is 8930 fluorescence intensity (a.u.).

As to “GGTCAATATATATTTCTTTTTCATGGTTGTCATCACTCCTCGGAGTCACCTAGTGCAG”, the binding signal was 13000 fluorescence intensity (a.u.).
